This is an account of results in paper PMC8700061, “Fragment-Sized and Bidentate (Immuno)Proteasome Inhibitors Derived from Cysteine and Threonine Targeting Warheads” (Cells, 2021).

Molecules are shown by their SMILES. Entries after “also recorded” stand apart in the source; their conditions may differ.

One data set in a line: UV-Vis-based reactivity assay with N-acetyl cysteine. Type of data set: physicochemical. To be noted: 50 µM compound, 0.5 mM N-acetyl cysteine; hyperreactive = reaction too fast to be monitored.
With `COc1cccc2oc(C#N)nc12` [Compound 6], the “Reactivity with N-acetyl cysteine (UV-Vis-based assay)” value (“Reactivity with N-acetyl cysteine” below) is reported as “hyperreactive”. Same read-out and setting: with `COc1ccc2oc(C#N)nc2c1` [Compound 7] the entry was “hyperreactive”. Regarding `COc1ccc2nc(C#N)oc2c1` [Compound 8], the “Reactivity with N-acetyl cysteine” value is on record as “hyperreactive”. On the same count and under the same terms, to `COc1cccc2nc(C#N)oc12` [Compound 9] belongs “hyperreactive”; to `N#Cc1nc2c(O)cccc2o1` [Compound 10], “hyperreactive”; to `N#Cc1nc2cc(O)ccc2o1` [Compound 11], “hyperreactive”. Still for that read-out and setting: with `N#Cc1nc2ccc(O)cc2o1` [Compound 12] the entry was “hyperreactive”; with `N#Cc1nc2cccc(O)c2o1` [Compound 13], “hyperreactive”; with `CC(=O)Oc1cccc2oc(C#N)nc12` [Compound 14], “hyperreactive”.

Consider `CC(=O)Oc1ccc2oc(C#N)nc2c1` [Compound 15], for which the “Reactivity with N-acetyl cysteine” value is reported as “hyperreactive”.

With `N#Cc1nc2c([N+](=O)[O-])cccc2o1` [Compound 16], the “Reactivity with N-acetyl cysteine” value is “hyperreactive”. The same measure, in the same setting: to `N#Cc1nc2cccc([N+](=O)[O-])c2o1` [Compound 19] belongs “hyperreactive”; to `N#Cc1nc2c(N)cccc2o1` [Compound 20], “hyperreactive”. On the same count and under the same terms, with `N#Cc1nc2cc(N)ccc2o1` [Compound 21] the entry was “hyperreactive”; with `N#Cc1nc2ccc(N)cc2o1` [Compound 22], “hyperreactive”. The same measure, in the same setting: with `N#Cc1nc2cccc(N)c2o1` [Compound 23] the entry was “hyperreactive”. In the case of `N#Cc1nc2c(NC(=O)c3ccccc3)cccc2o1` [Compound 24], the “Reactivity with N-acetyl cysteine” value is listed as “hyperreactive”.

Turning to `N#Cc1nc2cc(NC(=O)c3ccccc3)ccc2o1` [Compound 25], the “Reactivity with N-acetyl cysteine” value was “hyperreactive”. Take `N#Cc1nc2cccc(NC(=O)c3ccccc3)c2o1` [Compound 27]: the “Reactivity with N-acetyl cysteine” value is “hyperreactive”. Still for that read-out and setting: to `CC(C)C[C@H](NC(=O)CCn1c(C#N)nc2ccccc21)B1O[C@@H]2C[C@@H]3C[C@@H](C3(C)C)[C@]2(C)O1` [Compound 30] belongs “not reactive”. Still for that read-out and setting: with `CC(C)C[C@H](NC(=O)CCCn1c(C#N)nc2ccccc21)B1O[C@@H]2C[C@@H]3C[C@@H](C3(C)C)[C@]2(C)O1` [Compound 31] the entry was “not reactive”; with `CC(C)C[C@H](NC(=O)CCCCn1c(C#N)nc2ccccc21)B1O[C@@H]2C[C@@H]3C[C@@H](C3(C)C)[C@]2(C)O1` [Compound 32], “not reactive”; with `CC(C)C[C@H](NC(=O)CCCn1c(C#N)nc2ccccc21)B(O)O` [Compound 35], “not reactive”.

Take `CC(C)C[C@H](NC(=O)CCCCn1c(C#N)nc2ccccc21)B(O)O` [Compound 36]: the “Reactivity with N-acetyl cysteine” value is “not reactive”. On the same count and under the same terms, to `CC(C)C[C@H](NC(=O)CCn1c(C#N)nc2ccc(Cl)cc21)B1O[C@@H]2C[C@@H]3C[C@@H](C3(C)C)[C@]2(C)O1` [Compound 37] belongs “not reactive”; to `CC(C)C[C@H](NC(=O)CCn1c(C#N)nc2cccc(Cl)c21)B1O[C@@H]2C[C@@H]3C[C@@H](C3(C)C)[C@]2(C)O1` [Compound 38], “not reactive”; to `CC(C)C[C@H](NC(=O)Cc1ccc2oc(C#N)nc2c1)B1O[C@@H]2C[C@@H]3C[C@@H](C3(C)C)[C@]2(C)O1` [Compound 39], “hyperreactive”. The same measure, in the same setting: to `CC(C)C[C@H](NC(=O)Cc1ccc2oc(C#N)nc2c1)B(O)O` [Compound 40] belongs “hyperreactive”.

A short description of a further data set: HPLC-based GSH reactivity assay. The data set is classed as physicochemical. The following applies: 250 µM compound, 5 mM GSH, PBS pH 7.4. The protocol:
GSH reactivity assay was performed as described by Petri et al.; 500 μM solution of compound (PBS buffer pH 7.4, 10% MeCN, 250 μL) with 200 μM solution of indoprofen as internal standard were added to 10 mM GSH solution (dissolved in PBS buffer, 250 μL) in a 1:1 ratio. […] The final mixture was analyzed by HPLC after 0, 1, 2, 4, 8, 12, 24, 48, and 72 h. The degradation kinetics were also studied using the method described in [24], except that pure PBS buffer was used instead of GSH solution. […] The area under the curve (AUC) values were determined by integrating the HPLC spectra and then corrected with the internal standard.
Take `COc1cccc2oc(C#N)nc12` [Compound 6]: the “Reactivity with GSH (HPLC-based assay), in words” value (“Reactivity with GSH” for short) was “hyperreactive”.

Take `COc1ccc2oc(C#N)nc2c1` [Compound 7]: the “Reactivity with GSH” value was “hyperreactive”. The same measure, in the same setting: to `COc1cccc2nc(C#N)oc12` [Compound 9] belongs “hyperreactive”; to `C=Cc1nc(CC(=O)N[C@@H](CC(C)C)B2O[C@@H]3C[C@@H]4C[C@@H](C4(C)C)[C@]3(C)O2)cs1` [Compound 28], “not reactive; also recorded: unreactive”. Still for that read-out and setting: to `CC(C)C[C@H](NC(=O)CCn1c(C#N)nc2ccccc21)B1O[C@@H]2C[C@@H]3C[C@@H](C3(C)C)[C@]2(C)O1` [Compound 30] belongs “not reactive”; to `CC(C)C[C@H](NC(=O)CCCn1c(C#N)nc2ccccc21)B1O[C@@H]2C[C@@H]3C[C@@H](C3(C)C)[C@]2(C)O1` [Compound 31], “not reactive”; to `CC(C)C[C@H](NC(=O)CCCCn1c(C#N)nc2ccccc21)B1O[C@@H]2C[C@@H]3C[C@@H](C3(C)C)[C@]2(C)O1` [Compound 32], “not reactive”. Same read-out and setting: with `CC(C)C[C@H](NC(=O)CCn1c(C#N)nc2ccc(Cl)cc21)B1O[C@@H]2C[C@@H]3C[C@@H](C3(C)C)[C@]2(C)O1` [Compound 37] the entry was “not reactive”. Turning to `CC(C)C[C@H](NC(=O)CCn1c(C#N)nc2cccc(Cl)c21)B1O[C@@H]2C[C@@H]3C[C@@H](C3(C)C)[C@]2(C)O1` [Compound 38], the “Reactivity with GSH” value is “not reactive”.
